Assay results reported in patent US12246040B2, “Human homogeneous amniotic fluid stem cell lines and uses thereof” (priority 2018, dated 2025).
At least one structure is not confirmed: it was looked up by name or label, or the drawing left a doubt.

Columns and labels:
Format in all cases: cell-based
[1] = tested on: homogeneous human amniotic fluid clonal stem cells; assay: In vitro neural differentiation with pharmacological agent screening; conditions: neural induction 21 days; results not shown
[2] = tested on: homogeneous human amniotic fluid clonal stem cells; assay: Pharmacological agent effect on proliferation (cellular growth) of clonal stem cell spheroids; conditions: results not shown
[3] = tested on: homogeneous human amniotic fluid clonal stem cells; assay: In vitro osteocyte differentiation with pharmacological agent screening; conditions: results not shown

C[C@@H]1C[C@H]2[C@@H]3CCC4=CC(=O)C=C[C@]4(C)[C@@]3(F)[C@@H](O)C[C@]2(C)[C@@]1(O)C(=O)CO [DEX, dexamethasone]
enhances: effect on neural / neurological development [1] | effect on cellular growth [2] | effect on bone development / osteogenic differentiation [3]
